{
  "source": "ChEMBL document CHEMBL4513141",
  "about": "“CO-ADD screening of NIH (USA) - Clinical Collection” (2021)",
  "note": "This is one part of the list. Results with a measured potency or affinity are listed apart.",
  "data": [
    {"system": "Acinetobacter baumannii", "conditions": "Concentration 20 uM; ASSAY_TEST Inhibition of Bacterial Growth; detection method Absorption (OD600); MEDIA CAMHB; plate type 384well; NBS; CORNING #3640; time 18 hr", "units": {"Inhibition": "%"}, "values": [
      {"smiles": "CC(C)(S)C(N)C(=O)O", "note": "(stereo not drawn) [DL-PENICILLAMINE]", "Inhibition": 22.2},
      {"smiles": "COc1cc(C(=O)NC2CCCNC2)cc(OC)c1OC", "note": "(centres undefined) [TROXIPIDE]", "Inhibition": 20.3},
      {"smiles": "c1ccc2[nH]c(-c3cscn3)nc2c1", "note": "[THIABENDAZOLE]", "Inhibition": 17.74},
      {"smiles": "CN1CCN(CCCN2c3ccccc3Sc3ccc(Cl)cc32)CC1.O=C(O)/C=C\\C(=O)O.O=C(O)/C=C\\C(=O)O", "note": "[PROCHLORPERAZINE MALEATE]", "Inhibition": 25.43},
      {"smiles": "CCN(CC)C(=O)[C@]1(c2ccccc2)C[C@@H]1CN.Cl", "note": "[1R,2S-MILNACIPRAN HYDROCHLORIDE]", "Inhibition": 28.51},
      {"smiles": "CCc1cccc2c3c([nH]c12)C(CC)(CC(=O)O)OCC3", "note": "(centres undefined) [ETODOLAC]", "Inhibition": 21.05},
      {"smiles": "CC1=C(CC(=O)O)c2cc(F)ccc2/C1=C\\c1ccc([S+](C)[O-])cc1", "note": "(centres undefined)", "Inhibition": 22.33},
      {"smiles": "Cl.NC1CCN(c2cccc(Cl)n2)CC1", "Inhibition": 5.11},
      {"smiles": "CN(CCOc1ccc(CC2SC(=O)NC2=O)cc1)c1ccccn1.O=C(O)/C=C\\C(=O)O", "note": "(centres undefined) [ROSIGLITAZONE MALEATE]", "Inhibition": 18.39},
      {"smiles": "Cl.O.O=C(c1ccc(F)cc1)C1CCN(CCn2c(=S)[nH]c3ccccc3c2=O)CC1", "Inhibition": 8.41},
      {"smiles": "COc1ccc2[nH]c([S+]([O-])Cc3ncc(C)c(OC)c3C)nc2c1", "note": "(centres undefined) [OMEPRAZOLE]", "Inhibition": 7.26},
      {"smiles": "N=c1cc(N2CCCCC2)nc(N)n1O", "Inhibition": 20.47},
      {"smiles": "Cl.O=c1n(CCCN2CCN(c3cccc(Cl)c3)CC2)nc2ccccn12", "note": "[TRAZODONE HYDROCHLORIDE]", "Inhibition": 9.41},
      {"smiles": "CNCCCN1c2ccccc2CCc2ccccc21.Cl", "note": "[DESIPRAMINE HYDROCHLORIDE]", "Inhibition": 28.7},
      {"smiles": "COC(=O)CCc1ccc(OCC(O)CNC(C)C)cc1.Cl", "note": "(centres undefined) [ESMOLOL HYDROCHLORIDE]", "Inhibition": 15.72},
      {"smiles": "CC(C)Cc1ccc(C(C)C(=O)O)cc1", "note": "(centres undefined) [IBUPROFEN]", "Inhibition": 9.08},
      {"smiles": "Br.Br.O=C1CC2(CCCC2)CC(=O)N1CCNCC1COc2ccccc2O1", "note": "(centres undefined)", "Inhibition": 31.64},
      {"smiles": "C[C@]12CCC(=O)C=C1CC[C@@H]1[C@@H]2[C@@H](O)C[C@@]2(C)[C@H]1CC[C@]2(O)C(=O)CO", "note": "[HYDROCORTISONE]", "Inhibition": 3.9},
      {"smiles": "CCN1CCC[C@H]1CNC(=O)c1c(O)c(Cl)cc(Cl)c1OC", "note": "[RACLOPRIDE]", "Inhibition": 10.65},
      {"smiles": "O.OC[C@H]1O[C@@H](n2cnc3c(NC4CCCC4)nc(Cl)nc32)[C@@H](O)C1O", "note": "(some centres undefined)", "Inhibition": 14.41},
      {"smiles": "CSc1ccc2c(c1)N(CCC1CCCCN1C)c1ccccc1S2.Cl", "note": "(centres undefined) [THIORIDAZINE HYDROCHLORIDE]", "Inhibition": 9.91},
      {"smiles": "CCCCC[C@H](O)/C=C/[C@H]1[C@H](O)CC(=O)[C@@H]1CCCCCCC(=O)O", "note": "[ALPROSTADIL]", "Inhibition": 14.8},
      {"smiles": "CC[C@H](C)C(=O)O[C@H]1C[C@H](O)C=C2C=C[C@H](C)[C@H](CC[C@@H](O)C[C@@H](O)CC(=O)[O-])[C@H]21.[Na+]", "note": "[PRAVASTATIN SODIUM]", "Inhibition": 25.79},
      {"smiles": "C#C[C@]1(O)CC[C@H]2[C@@H]3CCc4cc(OC)ccc4[C@H]3CC[C@@]21C", "note": "[MESTRANOL]", "Inhibition": 18.25},
      {"smiles": "COc1cc([C@@H]2c3cc4c(cc3[C@@H](O[C@@H]3O[C@@H]5CO[C@@H](C)O[C@H]5[C@H](O)[C@H]3O)[C@H]3COC(=O)[C@H]23)OCO4)cc(OC)c1O", "note": "[ETOPOSIDE]", "Inhibition": 14.52},
      {"smiles": "O=C1CCc2ccc(OCCCCN3CCN(c4cccc(Cl)c4Cl)CC3)cc2N1", "note": "[ARIPIPRAZOLE]", "Inhibition": 15.04},
      {"smiles": "CN(C/C=C/C#CC(C)(C)C)Cc1cccc2ccccc12.Cl", "note": "[TERBINAFINE HYDROCHLORIDE]", "Inhibition": 27.2},
      {"smiles": "COC(=O)C1=C(C)NC(C)=C(C(=O)OCC(C)C)C1c1ccccc1[N+](=O)[O-]", "note": "(centres undefined) [NISOLDIPINE]", "Inhibition": 27.99},
      {"smiles": "O=C1[C@H](CC[C@H](O)c2ccc(F)cc2)[C@@H](c2ccc(O)cc2)N1c1ccc(F)cc1", "note": "[EZETIMIBE]", "Inhibition": 11.71},
      {"smiles": "CN(C)CCN(Cc1ccccc1)c1ccccn1.Cl", "note": "[TRIPELENNAMINE HYDROCHLORIDE]", "Inhibition": 11.98},
      {"smiles": "Cc1cnc(C(=O)NCCc2ccc(S(=O)(=O)NC(=O)NC3CCCCC3)cc2)cn1", "note": "[GLIPIZIDE]", "Inhibition": 16.47},
      {"smiles": "O=C(O)COCCN1CCN([C@H](c2ccccc2)c2ccc(Cl)cc2)CC1", "note": "[LEVOCETIRIZINE]", "Inhibition": 19.94},
      {"smiles": "CN(C)CC[C@@H](c1ccc(Br)cc1)c1ccccn1.O=C(O)/C=C\\C(=O)O", "note": "[DEXBROMPHENIRAMINE MALEATE]", "Inhibition": 3.09},
      {"smiles": "CCCN1CCCC[C@H]1C(=O)Nc1c(C)cccc1C.Cl", "note": "[ROPIVACAINE HYDROCHLORIDE]", "Inhibition": 26.89},
      {"smiles": "Br.CN(C)CCCC1(c2ccc(F)cc2)OCc2cc(C#N)ccc21", "note": "(centres undefined) [CITALOPRAM HYDROBROMIDE]", "Inhibition": 7.47},
      {"smiles": "CC[C@H]1OC(=O)[C@H](C)C(=O)[C@H](C)[C@@H](O[C@@H]2O[C@H](C)C[C@H](N(C)C)[C@H]2O)[C@](C)(OC)C[C@@H](C)C(=O)[C@H](C)[C@@H]2N(CCCCn3cnc(-c4cccnc4)c3)C(=O)O[C@@]21C", "Inhibition": 8.47},
      {"smiles": "CC(C)NCC(O)c1cc(O)cc(O)c1", "note": "(centres undefined) [METAPROTERENOL]", "Inhibition": 9.69},
      {"smiles": "Cc1cccc(Nc2ccccc2C(=O)O)c1C", "note": "[MEFENAMIC ACID]", "Inhibition": 30.29},
      {"smiles": "CN(C)C(=O)Oc1ccc[n+](C)c1.[Br-]", "note": "[PYRIDOSTIGMINE BROMIDE]", "Inhibition": 21.77},
      {"smiles": "CC(=O)OCC(=O)[C@@]12OC(C)(C)O[C@@H]1C[C@H]1[C@@H]3C[C@H](F)C4=CC(=O)C=C[C@]4(C)[C@@]3(F)[C@@H](O)C[C@@]12C", "note": "[FLUOCINONIDE]", "Inhibition": 20.38},
      {"smiles": "O=C1CCC(N2C(=O)c3ccccc3C2=O)C(=O)N1", "note": "(centres undefined) [THALIDOMIDE]", "Inhibition": 24.03},
      {"smiles": "CN1CCc2cc(Cl)c(O)cc2[C@@H](c2ccccc2)C1.Cl", "Inhibition": 15.46},
      {"smiles": "Nc1nc(O)c2ncn(CCC(CO)CO)c2n1", "note": "[PENCICLOVIR]", "Inhibition": 30.92},
      {"smiles": "COC(=O)C1=C(C)NC(C)=C(C(=O)OC(C)C)C1c1cccc2nonc12", "note": "(centres undefined) [ISRADIPINE]", "Inhibition": 18.51},
      {"smiles": "CC(=O)SCC(Cc1ccccc1)C(=O)NCC(=O)OCc1ccccc1", "note": "(centres undefined) [RACECADOTRIL]", "Inhibition": 14.64},
      {"smiles": "Cn1cnc([N+](=O)[O-])c1Sc1ncnc2[nH]cnc12", "note": "[AZATHIOPRINE]", "Inhibition": 25.3},
      {"smiles": "OCCN1C[C@H](O)[C@@H](O)[C@H](O)[C@H]1CO", "note": "[MIGLITOL]", "Inhibition": 27.09},
      {"smiles": "COc1ccc([C@@H]2Sc3ccccc3N(CCN(C)C)C(=O)[C@@H]2OC(C)=O)cc1.Cl", "note": "[DILTIAZEM HYDROCHLORIDE]", "Inhibition": 31.21},
      {"smiles": "C[C@H]1C[C@@H]2[C@H]([C@@H](O)C[C@@]3(C)[C@H]2CC[C@]3(O)C(=O)CO)[C@@]2(C)C=CC(=O)C=C12", "note": "[METHYLPREDNISOLONE]", "Inhibition": 19.64},
      {"smiles": "CC(COc1ccccc1Cc1ccccc1)N1CCCCC1.O=P(O)(O)O", "note": "(centres undefined)", "Inhibition": 36.86},
      {"smiles": "Nc1ccn([C@@H]2CS[C@H](CO)O2)c(=O)n1", "note": "[LAMIVUDINE]", "Inhibition": 11.08},
      {"smiles": "COc1ccccc1OCC(O)COC(N)=O", "note": "(centres undefined) [METHOCARBAMOL]", "Inhibition": 17.05},
      {"smiles": "Cl.Clc1cccc(Cl)c1NC1=NCCN1", "note": "[CLONIDINE HYDROCHLORIDE]", "Inhibition": 8.13},
      {"smiles": "C#C[C@]1(O)CC[C@H]2[C@@H]3CCC4=Cc5oncc5C[C@]4(C)[C@H]3CC[C@@]21C", "note": "[DANAZOL]", "Inhibition": 26.36},
      {"smiles": "CCC(=O)OCC(=O)[C@@]1(OC(=O)CC)[C@@H](C)C[C@H]2[C@@H]3CCC4=CC(=O)C=C[C@]4(C)[C@@]3(Cl)[C@@H](O)C[C@@]21C", "note": "[BECLOMETHASONE DIPROPIONATE]", "Inhibition": 18.55},
      {"smiles": "CC[C@@H]1C(=O)OC[C@@H]1Cc1cncn1C.Cl", "note": "[PILOCARPINE HYDROCHLORIDE]", "Inhibition": 29.28},
      {"smiles": "C=C1/C(=C\\C=C2/CCC[C@]3(C)[C@@H]([C@H](C)CCCC(C)(C)O)CC[C@@H]23)C[C@@H](O)C[C@@H]1O", "note": "[CALCITRIOL]", "Inhibition": 24.08},
      {"smiles": "COc1ccccc1OCC(O)CN1CCN(CC(=O)Nc2c(C)cccc2C)CC1.Cl.Cl", "note": "(centres undefined) [RANOLAZINE HYDROCHLORIDE]", "Inhibition": 15.85},
      {"smiles": "Cc1ccc(S(=O)(=O)NC(=O)NN2CCCCCC2)cc1", "note": "[TOLAZAMIDE]", "Inhibition": 16.02},
      {"smiles": "CCCCC(=O)OC1(C(=O)CO)CCC2C3CCC4=CC(=O)CCC4(C)C3C(O)CC21C", "note": "(centres undefined)", "Inhibition": 18.5},
      {"smiles": "NC(N)=Nc1nc(CSCC/C(N)=N/S(N)(=O)=O)cs1", "note": "[FAMOTIDINE]", "Inhibition": 2.64},
      {"smiles": "CC1=C(/C=C/C(C)=C/C=C/C(C)=C\\C(=O)O)C(C)(C)CCC1", "note": "[ISOTRETINOIN]", "Inhibition": 13.74},
      {"smiles": "CC(C)[N+]1(C)C2CCC1CC(OC(=O)C(CO)c1ccccc1)C2.[Br-]", "note": "(centres undefined)", "Inhibition": 16.29},
      {"smiles": "CC(C)c1ccc2c(c1)c(SC(C)(C)C)c(CC(C)(C)C(=O)O)n2Cc1ccc(Cl)cc1", "Inhibition": 26.37},
      {"smiles": "CC1CC2C3CCC4=CC(=O)C=CC4(C)[C@@]3(Cl)C(O)CC2(C)C1(O)C(=O)CO", "note": "(some centres undefined)", "Inhibition": 27.71},
      {"smiles": "CC(Oc1c(Cl)cccc1Cl)C1=NCCN1.Cl", "note": "(centres undefined) [LOFEXIDINE HYDROCHLORIDE]", "Inhibition": 19.83},
      {"smiles": "CO[C@H]1O[C@@H]2O[C@@]3(C)CC[C@H]4[C@H](C)CC[C@@H]([C@H]1C)[C@@]24OO3", "Inhibition": 30.63},
      {"smiles": "Cl.O=C1[C@H]2CCCC[C@H]2C(=O)N1CCCCN1CCN(c2nsc3ccccc23)CC1", "Inhibition": 23.42},
      {"smiles": "Nc1ccn([C@@H]2O[C@H](CO)[C@@H](O)[C@@H]2O)c(=O)n1", "note": "[CYTARABINE]", "Inhibition": 23.86}
    ]}
  ]
}
